Source: the supplement of paper PMC11732987, “Enantioselective OTUD7B fragment discovery through chemoproteomics screening and high-throughput optimisation” (Communications Chemistry, 2025)
The other results are listed elsewhere or left out. The data scatter; read single values as rough.

Protein sequences, listed by entry. Tags and fused reporters are not part of them. Lines headed by an entry give the natural chain unless they say otherwise; changes in a name come on top. Residues count along the entry.
UniProt Q15008: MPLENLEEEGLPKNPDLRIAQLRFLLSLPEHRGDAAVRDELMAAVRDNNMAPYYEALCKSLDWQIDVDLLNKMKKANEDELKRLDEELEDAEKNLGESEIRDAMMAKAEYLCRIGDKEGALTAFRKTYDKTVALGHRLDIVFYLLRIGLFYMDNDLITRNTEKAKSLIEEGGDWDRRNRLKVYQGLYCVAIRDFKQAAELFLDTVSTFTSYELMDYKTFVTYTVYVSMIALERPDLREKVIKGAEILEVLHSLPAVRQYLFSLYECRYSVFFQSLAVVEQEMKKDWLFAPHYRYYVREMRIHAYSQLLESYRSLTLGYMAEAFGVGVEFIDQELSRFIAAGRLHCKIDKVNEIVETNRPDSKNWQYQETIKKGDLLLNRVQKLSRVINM
UniProt Q9Y520, 878-902: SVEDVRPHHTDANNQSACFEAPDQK
UniProt Q99436: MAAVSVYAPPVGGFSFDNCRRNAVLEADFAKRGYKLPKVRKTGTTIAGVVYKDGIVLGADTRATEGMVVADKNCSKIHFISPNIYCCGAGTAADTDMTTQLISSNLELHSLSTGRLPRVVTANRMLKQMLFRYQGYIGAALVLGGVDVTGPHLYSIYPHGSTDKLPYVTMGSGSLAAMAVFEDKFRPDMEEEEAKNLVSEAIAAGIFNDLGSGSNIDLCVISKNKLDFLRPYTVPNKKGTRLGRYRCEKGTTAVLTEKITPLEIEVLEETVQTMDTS
UniProt Q99952: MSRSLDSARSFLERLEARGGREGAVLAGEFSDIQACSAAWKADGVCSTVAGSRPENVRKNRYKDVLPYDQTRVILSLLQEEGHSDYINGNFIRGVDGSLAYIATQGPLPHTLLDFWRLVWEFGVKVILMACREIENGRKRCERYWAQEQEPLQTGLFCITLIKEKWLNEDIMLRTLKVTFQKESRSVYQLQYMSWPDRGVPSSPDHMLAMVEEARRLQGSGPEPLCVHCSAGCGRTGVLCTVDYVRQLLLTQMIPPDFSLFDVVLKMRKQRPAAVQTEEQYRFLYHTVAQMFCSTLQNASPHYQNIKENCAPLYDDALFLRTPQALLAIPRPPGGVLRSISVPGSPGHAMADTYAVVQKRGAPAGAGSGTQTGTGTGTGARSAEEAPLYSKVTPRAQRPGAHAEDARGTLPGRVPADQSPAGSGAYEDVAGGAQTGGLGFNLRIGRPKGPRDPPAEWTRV
UniProt Q53H96: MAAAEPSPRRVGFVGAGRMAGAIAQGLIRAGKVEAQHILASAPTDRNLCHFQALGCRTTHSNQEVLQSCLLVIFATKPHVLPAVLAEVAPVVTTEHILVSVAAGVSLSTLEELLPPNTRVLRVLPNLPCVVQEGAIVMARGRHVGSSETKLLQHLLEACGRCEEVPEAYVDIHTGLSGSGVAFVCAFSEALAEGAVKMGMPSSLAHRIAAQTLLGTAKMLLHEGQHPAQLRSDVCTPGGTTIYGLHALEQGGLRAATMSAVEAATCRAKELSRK

What was measured:
[1] = compound: ClCC(=O)N[C@@H]1CCCc2ccccc12; assay: log2 mean competition ratio of IA-DTB cysteine labelling (DMSO/compound) (log2 ratio); higher = stronger cysteine engagement by compound; conditions: treatment time: 4 h, cell line lysate: HEK293T
Experimental: (§1)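 IA-DTB competitive cysteine chemoproteomics in HEK293T RIPA lysate. Lysates were treated with compound 29 or 30 at 50 or 200 µM for 4 h, then IA-DTB (500 µM, 1 h), trypsin-digested, NeutrAvidin-enriched and analysed by diaPASEF. Competition ratio = intensity DMSO / intensity compound (n=4 treated, n=64 DMSO); binding: mean log2 CR ≥ 1 and p ≤ 0.05 plus QC filters. Target is the cysteine site.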

[2] = compound: ClCC(=O)N[C@H]1CCCc2ccccc12; assay: as above; conditions: treatment time: 4 h, cell line lysate: HEK293T
Experimental: as §1

| Target | log2 mean competition ratio ([1]; 50 µM) | log2 mean competition ratio ([1]; 200 µM) | log2 mean competition ratio ([2]; 50 µM) | log2 mean competition ratio ([2]; 200 µM) |
| --- | --- | --- | --- | --- |
| PSMD6 C266 (UniProt Q15008) | -0.0755 | -0.229 | 0.21 | -0.18 |
| RACK1 C153 | 0.0235 | -0.383 | 0.12 | -0.414 |
| PTDSS1 C419 (UniProt P48651) | 0.00293 | -0.093 | 0.521 | -0.0393 |
| PSMD1 C112 | -0.253 | -0.272 | -0.282 | -0.288 |
| PRRC2C C895 (UniProt Q9Y520) | -0.467 | 0.521 | -0.401 | 0.258 |
| PSMB7 C74 (UniProt Q99436) | 0.024 | 0.0905 | 0.0385 | 0.00502 |
| PTPN18 C240 (UniProt Q99952) | 0.341 | 0.287 | 0.299 | 0.349 |
| PYCR3 C266 (UniProt Q53H96) | 0.212 | 0.238 | -0.18 | 0.235 |
| PXDC1 C115 | 0.11 | 0.0529 | -0.207 | 0.207 |
